According to PMC2909763 (Chemistry & biology, 2009):

System: acetylated histone H3 in FRDA lymphoblast cell line
Experiment: Histone H3 acetylation by western blot in FRDA lymphoblasts
Format: cell-based, human
Conditions: increasing concentrations, western blotting

In the case of `Cc1ccc(NC(=O)CCCCCC(=O)Nc2ccccc2N)cc1` [compound 106], the “HDAC inhibition in FRDA cells (histone acetylation titration)” value is reported as “comparably active”.
